Laboratory results as given in ChEMBL document CHEMBL3769315 (J Med Chem, 2016).

Key:
Murine leukemia virus = assay: Antiviral activity against Murine leukemia virus pseudoparticle infected in human Huh7.5.1 cells at 1 uM after 4 hrs by luciferase reporter gene assay; assay type: functional; conditions: Huh-7, 4 h
[1] = system: Vesicular stomatitis virus; assay: Antiviral activity against Vesicular stomatitis virus G pseudoparticle infected in human Huh7.5.1 cells at 1 uM after 4 hrs by luciferase reporter gene assay; assay type: functional; conditions: Huh-7, 4 h

## Clc1ccc(C(c2ccc(Cl)cc2)N2CCNCC2)cc1
Murine leukemia virus
  inhibition at 1 µM: 120%
[1]
  inhibition at 1 µM: 115%
